Results reported in patent US6673587.
No constants are given. Whether binding was seen depends on the method and setting. Some binding calls cover weakened binding; strength is not graded here.

By UniProt entry, the sequences of proteins in these tests, tags left out. Where a name states a change or a piece, a line headed by the entry shows the natural chain unless it says otherwise.
UniProt P04386: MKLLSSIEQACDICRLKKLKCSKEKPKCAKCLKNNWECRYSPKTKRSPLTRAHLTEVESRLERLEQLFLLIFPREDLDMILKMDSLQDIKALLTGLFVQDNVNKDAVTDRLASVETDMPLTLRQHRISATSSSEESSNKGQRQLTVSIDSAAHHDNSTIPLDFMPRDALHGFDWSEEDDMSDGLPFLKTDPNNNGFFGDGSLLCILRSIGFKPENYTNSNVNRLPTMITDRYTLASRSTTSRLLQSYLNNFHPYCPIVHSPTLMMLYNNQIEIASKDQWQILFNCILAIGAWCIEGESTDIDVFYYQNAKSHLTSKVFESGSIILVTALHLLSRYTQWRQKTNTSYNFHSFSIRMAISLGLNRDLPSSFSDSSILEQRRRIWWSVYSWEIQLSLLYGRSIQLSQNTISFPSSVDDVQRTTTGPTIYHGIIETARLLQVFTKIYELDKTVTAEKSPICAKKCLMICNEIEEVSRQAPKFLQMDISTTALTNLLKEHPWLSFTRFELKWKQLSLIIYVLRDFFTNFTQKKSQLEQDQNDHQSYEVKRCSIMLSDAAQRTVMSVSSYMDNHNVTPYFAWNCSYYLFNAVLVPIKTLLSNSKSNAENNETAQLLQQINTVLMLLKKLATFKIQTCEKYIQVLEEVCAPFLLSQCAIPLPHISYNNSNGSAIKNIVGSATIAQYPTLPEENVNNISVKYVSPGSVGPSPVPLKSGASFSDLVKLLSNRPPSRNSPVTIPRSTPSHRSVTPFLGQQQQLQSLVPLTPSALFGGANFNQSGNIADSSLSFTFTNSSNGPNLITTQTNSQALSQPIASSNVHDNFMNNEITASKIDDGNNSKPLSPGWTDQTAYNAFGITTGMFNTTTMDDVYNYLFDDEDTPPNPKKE
UniProt Q9Y618: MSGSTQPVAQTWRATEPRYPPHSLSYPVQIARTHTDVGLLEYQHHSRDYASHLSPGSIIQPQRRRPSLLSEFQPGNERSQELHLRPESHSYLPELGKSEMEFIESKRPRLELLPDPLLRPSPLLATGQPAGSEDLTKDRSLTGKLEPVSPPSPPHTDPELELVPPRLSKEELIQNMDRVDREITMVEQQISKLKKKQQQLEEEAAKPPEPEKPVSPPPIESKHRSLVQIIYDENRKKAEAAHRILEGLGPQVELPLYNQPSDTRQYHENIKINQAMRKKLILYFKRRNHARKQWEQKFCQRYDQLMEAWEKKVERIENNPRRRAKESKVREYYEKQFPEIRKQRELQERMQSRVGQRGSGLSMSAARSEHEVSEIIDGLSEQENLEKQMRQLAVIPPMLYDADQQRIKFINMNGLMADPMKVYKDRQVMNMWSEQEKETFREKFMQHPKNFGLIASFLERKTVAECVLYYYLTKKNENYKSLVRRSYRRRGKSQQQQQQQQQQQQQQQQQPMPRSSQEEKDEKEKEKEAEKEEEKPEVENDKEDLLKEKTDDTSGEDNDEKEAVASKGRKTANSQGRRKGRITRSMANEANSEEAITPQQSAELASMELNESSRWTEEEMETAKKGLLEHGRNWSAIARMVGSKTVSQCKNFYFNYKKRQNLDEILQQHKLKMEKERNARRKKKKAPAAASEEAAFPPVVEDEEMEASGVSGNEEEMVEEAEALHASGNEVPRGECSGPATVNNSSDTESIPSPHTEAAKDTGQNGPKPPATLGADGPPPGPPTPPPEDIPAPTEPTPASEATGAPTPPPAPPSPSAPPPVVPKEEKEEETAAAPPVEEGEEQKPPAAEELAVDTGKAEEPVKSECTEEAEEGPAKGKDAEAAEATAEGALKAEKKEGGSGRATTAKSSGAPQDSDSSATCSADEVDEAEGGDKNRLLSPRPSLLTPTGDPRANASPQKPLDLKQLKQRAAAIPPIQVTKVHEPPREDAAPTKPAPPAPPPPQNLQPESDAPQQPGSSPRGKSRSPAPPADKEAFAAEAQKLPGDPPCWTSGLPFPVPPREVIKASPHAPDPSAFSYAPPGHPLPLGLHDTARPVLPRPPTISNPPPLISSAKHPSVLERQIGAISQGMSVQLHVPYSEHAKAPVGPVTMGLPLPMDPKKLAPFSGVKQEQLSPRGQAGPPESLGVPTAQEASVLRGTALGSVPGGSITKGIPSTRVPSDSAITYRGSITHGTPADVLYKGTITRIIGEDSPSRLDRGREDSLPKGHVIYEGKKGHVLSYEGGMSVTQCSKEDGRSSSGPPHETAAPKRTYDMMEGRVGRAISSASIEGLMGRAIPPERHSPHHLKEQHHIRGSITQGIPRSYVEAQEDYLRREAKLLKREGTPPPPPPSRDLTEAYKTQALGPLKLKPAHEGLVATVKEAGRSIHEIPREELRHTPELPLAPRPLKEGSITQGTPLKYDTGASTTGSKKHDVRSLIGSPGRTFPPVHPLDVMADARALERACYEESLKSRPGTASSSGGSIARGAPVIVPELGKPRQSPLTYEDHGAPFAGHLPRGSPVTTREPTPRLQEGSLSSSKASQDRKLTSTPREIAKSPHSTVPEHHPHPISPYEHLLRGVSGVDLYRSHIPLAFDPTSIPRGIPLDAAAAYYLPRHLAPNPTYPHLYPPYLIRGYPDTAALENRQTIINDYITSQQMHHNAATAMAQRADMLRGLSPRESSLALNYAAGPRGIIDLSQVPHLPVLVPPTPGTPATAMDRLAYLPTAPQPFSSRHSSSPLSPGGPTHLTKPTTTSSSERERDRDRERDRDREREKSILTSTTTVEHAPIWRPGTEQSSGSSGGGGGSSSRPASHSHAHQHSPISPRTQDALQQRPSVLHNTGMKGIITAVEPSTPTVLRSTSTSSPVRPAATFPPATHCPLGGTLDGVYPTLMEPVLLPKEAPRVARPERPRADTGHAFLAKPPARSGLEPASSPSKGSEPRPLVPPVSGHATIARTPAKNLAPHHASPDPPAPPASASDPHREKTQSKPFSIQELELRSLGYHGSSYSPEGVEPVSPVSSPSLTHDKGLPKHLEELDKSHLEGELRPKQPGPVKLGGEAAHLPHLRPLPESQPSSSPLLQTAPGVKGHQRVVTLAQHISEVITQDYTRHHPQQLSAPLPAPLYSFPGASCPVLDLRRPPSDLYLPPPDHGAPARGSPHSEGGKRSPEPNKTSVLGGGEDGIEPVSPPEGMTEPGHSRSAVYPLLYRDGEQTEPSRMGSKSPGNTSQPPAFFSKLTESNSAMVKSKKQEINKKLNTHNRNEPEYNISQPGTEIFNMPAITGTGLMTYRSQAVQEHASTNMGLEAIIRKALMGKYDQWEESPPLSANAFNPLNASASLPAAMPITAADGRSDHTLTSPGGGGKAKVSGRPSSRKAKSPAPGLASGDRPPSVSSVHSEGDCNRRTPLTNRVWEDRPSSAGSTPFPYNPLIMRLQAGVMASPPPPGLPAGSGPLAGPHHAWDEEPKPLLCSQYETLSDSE
UniProt Q8C2B3: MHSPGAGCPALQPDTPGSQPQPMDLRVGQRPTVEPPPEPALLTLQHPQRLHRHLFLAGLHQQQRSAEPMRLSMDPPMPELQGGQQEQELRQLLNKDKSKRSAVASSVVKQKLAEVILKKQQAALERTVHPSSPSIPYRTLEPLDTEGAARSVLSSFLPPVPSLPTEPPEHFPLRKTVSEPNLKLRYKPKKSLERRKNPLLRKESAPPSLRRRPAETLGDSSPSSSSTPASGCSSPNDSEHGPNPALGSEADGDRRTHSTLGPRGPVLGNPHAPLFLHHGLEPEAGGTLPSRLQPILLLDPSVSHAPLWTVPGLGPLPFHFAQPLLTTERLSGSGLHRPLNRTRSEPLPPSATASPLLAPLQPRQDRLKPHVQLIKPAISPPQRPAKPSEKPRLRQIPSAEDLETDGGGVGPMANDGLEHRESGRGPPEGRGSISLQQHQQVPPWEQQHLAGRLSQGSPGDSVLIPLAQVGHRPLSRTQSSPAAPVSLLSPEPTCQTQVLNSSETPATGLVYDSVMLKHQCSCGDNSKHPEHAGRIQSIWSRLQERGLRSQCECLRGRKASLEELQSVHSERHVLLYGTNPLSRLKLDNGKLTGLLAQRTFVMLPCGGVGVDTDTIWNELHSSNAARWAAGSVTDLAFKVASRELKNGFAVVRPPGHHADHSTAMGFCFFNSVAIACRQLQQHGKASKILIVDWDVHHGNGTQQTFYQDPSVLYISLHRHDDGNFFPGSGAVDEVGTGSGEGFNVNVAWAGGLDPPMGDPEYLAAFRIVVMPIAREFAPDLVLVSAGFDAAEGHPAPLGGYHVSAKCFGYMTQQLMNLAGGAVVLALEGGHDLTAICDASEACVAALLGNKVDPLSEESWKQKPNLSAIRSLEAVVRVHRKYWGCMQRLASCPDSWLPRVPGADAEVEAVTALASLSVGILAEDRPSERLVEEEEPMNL

Columns and labels:
[1] = target: T1, GAL DBD-SMRT (RD III+IV), pGBT9-hSMRT (1060-1831) (human) (UniProt P04386+Q9Y618); assay: yeast two-hybrid screen with pGBT9-hSMRT (1060-1831) as bait
[2] = target: T1, GAL DBD-SMRT (RD III+IV), pGBT9-hSMRT (1060-1831) (human); assay: yeast two-hybrid, growth on -Trp-Leu-His+40 mM 3-AT plates
[3] = target: T1, GAL DBD-SMRT (RD III+IV), pGBT9-hSMRT (1060-1831) (human); assay: yeast two-hybrid
[4] = target: T1, GAL DBD-SMRT (RD III+IV), pGBT9-hSMRT (1060-1831) (human); assay: yeast two-hybrid, liquid beta-galactosidase assay

Measured: binding

mHDAC7 clone 23C, C-terminal sequence of mHDAC7 (GAL AD fusion) (from UniProt Q8C2B3 500-938) (enzyme)
binds: all assays above
